Changes are numbered by the printed parent chain.

For eleven molecules, mTCRβ % results are on record in US20240123070A1, “EPITOPE PEPTIDE OF RAS G13D MUTANT AND T CELL RECEPTOR RECOGNIZING RAS G13D MUTANT” (SHANGHAI GENBASE BIOTECHNOLOGY CO., LTD., priority 2021, published 2024).

First the molecules themselves.
B1: β97V-I: B8.2.4 TCR point mutant, Vβ-CDR3 97V to I; CDR3β ASSQTIPPQH (protein)
TCR alpha: AQKITQTQPGMFVQEKEAVTLDCTYDTSDPSYGLFWYKQPSSGEMIFLIYQGSYDQQNATEGRYSLNFQKARKSANLVISASQLGDSAMYFCAMRERTGTASKLTFGTGTRLQVTLDIQNPEPAVYQLKDPRSQDSTLCLFTDFDSQINVPKTMESGTFITDKTVLDMKAMDSKSNGAIAWSNQTSFTCQDIFKETNATYPSSDVPCDATLTEKSFETDMNLNFQNLSVMGLRILLLKVAGFNLLMTLRLWSS
TCR beta: DVKVTQSSRYLVKRTGEKVFLECVQDMDHENMFWYRQDPGLGLRLIYFSYDVKMKEKGDIPEGYSVSREKKERFSLILESASTNQTSMYLCASSQTIPPQHFGDGTRLSILEDLRNVTPPKVSLFEPSKAEIANKQKATLVCLARGFFPDHVELSWWVNGKEVHSGVSTDPQAYKESNYSYCLSSRLRVSATFWHNPRNHFRCQVQFHGLSEEDKWPEGSPKPVTQNISAEAWGRADCGITSASYQQGVLSATILYEILLGKATLYAVLVSTLVVMAMVKRKNS
B2: β97V-P: B8.2.4 TCR point mutant, Vβ-CDR3 97V to P (protein)
TCR alpha: B1 TCR alpha
TCR beta: B1 TCR beta with I97P
B3: β97V-T: B8.2.4 TCR point mutant, Vβ-CDR3 97V to T; CDR3β ASSQTTPPQH (protein)
TCR alpha: B1 TCR alpha
TCR beta: B1 TCR beta with I97T
B4: β97V-Q: B8.2.4 TCR point mutant, Vβ-CDR3 97V to Q (protein)
TCR alpha: B1 TCR alpha
TCR beta: B1 TCR beta with I97Q
B5: β97V-W: B8.2.4 TCR point mutant, Vβ-CDR3 97V to W (protein)
TCR alpha: B1 TCR alpha
TCR beta: B1 TCR beta with I97W
B6: β97V-N: B8.2.4 TCR point mutant, Vβ-CDR3 97V to N (protein)
TCR alpha: B1 TCR alpha
TCR beta: B1 TCR beta with I97N
B7: β97V-L: B8.2.4 TCR point mutant, Vβ-CDR3 97V to L (protein)
TCR alpha: B1 TCR alpha
TCR beta: B1 TCR beta with I97L
B8: β97V-K: B8.2.4 TCR point mutant, Vβ-CDR3 97V to K (protein)
TCR alpha: B1 TCR alpha
TCR beta: B1 TCR beta with I97K
B9: β97V-M: B8.2.4 TCR point mutant, Vβ-CDR3 97V to M (protein)
TCR alpha: B1 TCR alpha
TCR beta: B1 TCR beta with I97M
B10: β97V-R: B8.2.4 TCR point mutant, Vβ-CDR3 97V to R (protein)
TCR alpha: B1 TCR alpha
TCR beta: B1 TCR beta with I97R
B11: β97V-S: B8.2.4 TCR point mutant, Vβ-CDR3 97V to S; CDR3β ASSQTSPPQH (protein)
TCR alpha: B1 TCR alpha
TCR beta: B1 TCR beta with I97S

For the data set, the system named is murine TCRβ constant region. Kind of data set: mTCRβ expression detection on Jurkat-NFAT-Luc cells. Type of data set: cell-based. As to conditions: TCR mutant transduced Jurkat-NFAT-Luc cells.
Molecule B1 had a mTCRβ % of 69.9%.

As for B2, the mTCRβ % is given as 53.4%.

B3 displayed a mTCRβ % of 64.7%.

The molecule B4 gave a mTCRβ % of 74.5%.

B5 had a mTCRβ % of 74.5%.

B6: the mTCRβ % is on record as 52.4%.

Molecule B7 yielded a mTCRβ % of 63.8%.

As for B8, the mTCRβ % was 65.5%.

Take B9: the mTCRβ % was 28%.

As for B10, the mTCRβ % came to 55.2%.

B11 returned a mTCRβ % of 72.2%.
